Data: patent publication US12004506B2 (priority 2013, dated 2024)

Columns and labels:
[1] = general procedure: Fmoc solid-phase peptide synthesis; 2-chlorotritylchloride resin; Diisopropyl carbodiimide and N-hydroxy benzotriazole; conditions: whole synthesis, acetate salt
peptide synthesis = conditions: whole synthesis, acetate salt

Row | Substance | final purity (method not given) [1] [%] | final purity (method not given) (peptide synthesis) [%]
1 | Cyc1o(β-a1anine-GQRETPEGAEAKPWYE) | 100 | –
2 | Cyclo(4-aminobutanoic acid-GQRETPEGAEAKPWYD) | 100 | –
3 | Cyclo(CGQREAPAGAAAKPWYC) (cyclic; cyclized compound having a disulphide bridge; DISULFID (1)..(17)) | – | 95
4 | Cyclo(CGQRETPEGAEAKPWYC) | 96.3 | –
5 | Cyclo(KGQRETPEGAEAKPWYG) | 98.8 | –
6 | Cyclo(KSPGQRETPEGAEAKPWYE) | 96.3 | –
7 | Cyclo(ornithine-GQRETPEGAEAKPWYG) | 97.4 | –
